These are yes or no findings as the source states them, for the method shown. Binding seen in cells or lysates may run through a third protein. Some binding calls cover weakened binding; strength is not graded here.
Tests used:
[1] = target: CDC20 (of the Co-IP in Fig. S5B) (UniProt Q12834); test: co-IP; Co-IP of PRMT6 and CDC20 (Fig. S5B); cells, constructs and antibodies not told in the text shown
[2] = target: CDKN1B (P27), endogenous (human (endogenous in U87 or LN229)) (UniProt P46527); test: co-IP; endogenous Co-IP from U87 or LN229 cell lysate with anti-CDC20 or anti-CDKN1B antibody, control IgG as negative control; immunoblot with anti-CDC20 and anti-CDKN1B
CDKN1B-FLAG = CDKN1B-FLAG (UniProt P46527); test: co-IP; exogenous Co-IP from HEK293T cells, NP-40 lysis buffer; anti-FLAG antibody on Protein A/G agarose beads, incubated overnight with cell extracts at 4 °C; immunoblot with anti-HA and anti-FLAG

Protein sequences, listed by entry. Tags and fused reporters are not part of them. Lines headed by an entry give the natural chain unless they say otherwise; changes in a name come on top.
UniProt Q12834: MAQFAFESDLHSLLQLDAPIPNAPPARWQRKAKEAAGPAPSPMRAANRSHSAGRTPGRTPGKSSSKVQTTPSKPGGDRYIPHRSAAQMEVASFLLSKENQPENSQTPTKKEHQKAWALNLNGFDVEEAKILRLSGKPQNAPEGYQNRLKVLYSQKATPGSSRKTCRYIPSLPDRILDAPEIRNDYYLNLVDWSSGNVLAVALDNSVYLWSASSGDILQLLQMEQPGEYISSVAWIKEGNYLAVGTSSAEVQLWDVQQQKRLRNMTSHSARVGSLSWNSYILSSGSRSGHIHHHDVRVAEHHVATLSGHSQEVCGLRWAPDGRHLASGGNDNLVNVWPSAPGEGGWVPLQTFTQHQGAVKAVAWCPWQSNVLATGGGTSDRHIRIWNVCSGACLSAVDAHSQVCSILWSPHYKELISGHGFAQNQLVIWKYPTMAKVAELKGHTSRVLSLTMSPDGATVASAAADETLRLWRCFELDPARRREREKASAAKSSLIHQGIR
UniProt P46527: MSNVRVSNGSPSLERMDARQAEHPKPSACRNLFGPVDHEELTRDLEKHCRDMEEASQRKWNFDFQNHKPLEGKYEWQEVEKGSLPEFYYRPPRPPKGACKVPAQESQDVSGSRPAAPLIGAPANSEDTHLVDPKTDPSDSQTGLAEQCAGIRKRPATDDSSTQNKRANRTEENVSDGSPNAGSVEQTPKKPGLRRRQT
UniProt Q96LA8: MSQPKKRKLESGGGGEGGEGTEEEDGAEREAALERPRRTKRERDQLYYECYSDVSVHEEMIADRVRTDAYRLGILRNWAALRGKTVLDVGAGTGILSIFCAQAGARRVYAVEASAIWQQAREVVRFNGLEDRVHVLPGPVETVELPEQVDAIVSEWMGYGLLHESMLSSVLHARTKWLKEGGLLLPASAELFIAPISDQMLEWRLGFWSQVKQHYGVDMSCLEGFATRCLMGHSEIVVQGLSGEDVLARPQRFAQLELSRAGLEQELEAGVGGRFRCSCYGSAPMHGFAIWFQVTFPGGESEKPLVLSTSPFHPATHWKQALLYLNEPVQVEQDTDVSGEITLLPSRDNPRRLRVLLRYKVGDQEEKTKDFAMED

Question: How did the binding [1] turn out when “PRMT6 (of the Co-IP in Fig. S5B) (from UniProt Q96LA8 1-375)” was run?
Answer: The binding was “no binding”.

Question: With “Cell division cycle 20 (CDC20), endogenous (from UniProt Q12834 1-499)” as the substance, how does the binding [2] read?
Answer: The binding was “binds”.

Question: With CDC20-HA (from UniProt Q12834 1-499) as the substance, how does the binding (CDKN1B-FLAG) read?
Answer: Its binding is “binds”.
